Measurements as given in patent publication US20240043568A1.
Results are given in words; binding and its absence hold for the method and conditions named. Some entries that bind do so weakly or less than the wild type.

Amino acid sequences for entries named in this document (tags omitted). A change or cut given only in a name is not applied to a line headed by its entry.
UniProt P51654: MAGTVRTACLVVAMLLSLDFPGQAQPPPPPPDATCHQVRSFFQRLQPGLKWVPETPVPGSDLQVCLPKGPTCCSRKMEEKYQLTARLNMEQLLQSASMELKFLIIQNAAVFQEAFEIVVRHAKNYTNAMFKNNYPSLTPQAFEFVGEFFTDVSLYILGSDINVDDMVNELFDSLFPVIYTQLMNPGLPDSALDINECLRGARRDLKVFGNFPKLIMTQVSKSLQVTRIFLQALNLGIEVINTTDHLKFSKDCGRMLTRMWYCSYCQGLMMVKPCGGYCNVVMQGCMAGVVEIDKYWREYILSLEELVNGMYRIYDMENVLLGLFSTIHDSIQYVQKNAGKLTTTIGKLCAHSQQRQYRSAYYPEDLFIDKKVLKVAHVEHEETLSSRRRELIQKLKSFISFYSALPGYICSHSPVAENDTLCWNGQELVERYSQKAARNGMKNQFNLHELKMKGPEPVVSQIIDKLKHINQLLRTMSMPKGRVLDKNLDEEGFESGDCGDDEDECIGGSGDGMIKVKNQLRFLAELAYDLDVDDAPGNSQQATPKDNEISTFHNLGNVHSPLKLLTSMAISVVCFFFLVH
UniProt Q8CFZ4: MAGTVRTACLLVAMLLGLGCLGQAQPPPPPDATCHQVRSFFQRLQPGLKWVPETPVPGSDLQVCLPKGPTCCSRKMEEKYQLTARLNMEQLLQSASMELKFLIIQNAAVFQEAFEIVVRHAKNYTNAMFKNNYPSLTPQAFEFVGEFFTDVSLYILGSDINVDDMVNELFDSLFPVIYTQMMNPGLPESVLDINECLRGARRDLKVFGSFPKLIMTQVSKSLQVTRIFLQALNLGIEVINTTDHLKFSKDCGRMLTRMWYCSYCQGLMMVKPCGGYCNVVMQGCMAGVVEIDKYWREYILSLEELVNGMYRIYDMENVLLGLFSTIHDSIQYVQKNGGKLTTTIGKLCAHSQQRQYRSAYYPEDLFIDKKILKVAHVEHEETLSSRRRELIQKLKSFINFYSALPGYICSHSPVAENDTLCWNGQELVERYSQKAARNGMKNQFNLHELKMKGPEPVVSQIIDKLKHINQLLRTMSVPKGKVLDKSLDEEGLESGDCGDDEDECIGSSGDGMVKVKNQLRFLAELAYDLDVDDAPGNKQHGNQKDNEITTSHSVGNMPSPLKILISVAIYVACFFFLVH

What was measured:
[1] = target: recombinant cynomolgus monkey GPC3 full-length protein (cynomolgus monkey); test: ELISA on coated recombinant cynomolgus monkey GPC3 protein, OD450 [panel Recombinant cynomolgus monkey GPC3 protein]
[2] = target: recombinant human GPC3 protein (human) (UniProt P51654); test: BLI (Octet)
[3] = target: recombinant human GPC3 protein (human) (UniProt P51654); test: ELISA on coated recombinant human GPC3 protein, OD450 [panel Recombinant human GPC3 protein]
[4] = target: recombinant cynomolgus monkey GPC3 full-length protein (cynomolgus monkey); test: SPR (Biacore T200)
[5] = target: recombinant mouse GPC3 full-length protein (mouse) (UniProt Q8CFZ4); test: ELISA, coated antigen 1 µg/ml
[6] = target: recombinant cynomolgus monkey GPC3 full-length protein (cynomolgus monkey); test: ELISA
[7] = target: recombinant mouse GPC3 full-length protein (mouse) (UniProt Q8CFZ4); test: ELISA
[8] = target: recombinant mouse GPC3 full-length protein (mouse) (UniProt Q8CFZ4); test: ELISA on coated recombinant mouse GPC3 protein, OD450 [panel Mouse recombinant GPC3 protein]

B1: h49G8VHv6VKv2 (antibody, V domains shown)
VH: QVQLVQSGAEVKKPGSSVKVSCKASGYTFADYEIHWVRQAPGQGLEWMGAIHPGSGGTAYAQKFQGRVTLTADESSTTAYMELSSLRSEDTAVYYCTRYYSFAYWGQGTLVTVSS
VL: DVVMTQSPLSLPVTPGEPASISCRSSQSIVHSNYNTYLEWYLQKPGQSPQLLIYKVSNRFSGVPDRFSGSGSGTDFTLKISRVEAEDVGVYFCLQVTHVPLTFGQGTKLEIK
B1 was tested, and the binding [1] was “binds”, the binding [2] was “binds” and the binding [3] was “binds”.

B2: h49G8VHv6VKv3 (antibody, V domains shown)
VH: QVQLVQSGAEVKKPGSSVKVSCKASGYTFADYEIHWVRQAPGQGLEWMGAIHPGSGGTAYAQKFQGRVTLTADESSTTAYMELSSLRSEDTAVYYCTRYYSFAYWGQGTLVTVSS
VL: DVVMTQSPLSLPVTPGEPASISCRSSQSIVHSNGNTYLEWYLQKPGQSPQLLIYKVSNRFSGVPDRFSGSGSGTDFTLKISRVEAEDVGVYFCLQVTHVPLTFGQGTKLEIK
In the case of B2, the binding [1] is reported as “binds” and the binding [4] is reported as “binds”.

B3: h49G8VHv6VKv4 (antibody, V domains shown)
VH: QVQLVQSGAEVKKPGSSVKVSCKASGYTFADYEIHWVRQAPGQGLEWMGAIHPGSGGTAYAQKFQGRVTLTADESSTTAYMELSSLRSEDTAVYYCTRYYSFAYWGQGTLVTVSS
VL: DVVMTQSPLSLPVTPGEPASISCRSSQSIVHSNSNTYLEWYLQKPGQSPQLLIYKVSNRFSGVPDRFSGSGSGTDFTLKISRVEAEDVGVYFCLQVTHVPLTFGQGTKLEIK
With B3 the binding [1] was “binds”.

B4: h49G8VHv6VKv5 (antibody, V domains shown)
VH: QVQLVQSGAEVKKPGSSVKVSCKASGYTFADYEIHWVRQAPGQGLEWMGAIHPGSGGTAYAQKFQGRVTLTADESSTTAYMELSSLRSEDTAVYYCTRYYSFAYWGQGTLVTVSS
VL: DVVMTQSPLSLPVTPGEPASISCRSSQSIVHSNTNTYLEWYLQKPGQSPQLLIYKVSNRFSGVPDRFSGSGSGTDFTLKISRVEAEDVGVYFCLQVTHVPLTFGQGTKLEIK
For B4, the binding [1] was “binds”.

B5: h49G8VHv6VKv6 (antibody, V domains shown)
VH: QVQLVQSGAEVKKPGSSVKVSCKASGYTFADYEIHWVRQAPGQGLEWMGAIHPGSGGTAYAQKFQGRVTLTADESSTTAYMELSSLRSEDTAVYYCTRYYSFAYWGQGTLVTVSS
VL: DVVMTQSPLSLPVTPGEPASISCRSSQSIVHSNANTYLEWYLQKPGQSPQLLIYKVSNRFSGVPDRFSGSGSGTDFTLKISRVEAEDVGVYFCLQVTHVPLTFGQGTKLEIK
B5 was tested, and the binding [1] was “binds”.

B6: 49G8 (antibody, V domains shown)
VH: QVQLQQSGAELVRPGASVKLSCKALGYTFADYEIHWVKQTPVHGLEWIGAIHPGSGGTAYNQTFEGKATLTADKSSTTAYMELSSLTSEDSAVYYCTRYYSFAYWGQGTLVTVSA
VL: DVVMTQTPLSLPVSLGDQASISCRSSQSIVHSNGNTYLEWYLQKPGQSPKLLIYKVSNRFSGVPDRFSGSGSGTDFTLKISRVEAEDLGVYFCLQVTHVPLTFGAGTKLELK
B6 was tested, and the binding [5] was “binds”, the binding [1] was “binds” and the binding [6] was “binds”. For the same binder, the binding [7] was “binds” and the binding [8] was “binds”.
